# PubChem BioAssay AID1347426 (Functional Genomics Laboratory (NCATS/FGL), 2020)
# About 1,400 (4.5%) of roughly 31,000 sequences were called active.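 The calls were made as follows: active = median seed-adjusted z-score above 1 or below -1; inactive = the rest.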 This is one part of the list.
# Assay: Novel Modifiers of Survival Motor Neuron (SMN) Protein: Gene Identification via Genome-wide siRNA Screen;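 also: luminescence tracks full-length SMN protein made from the SMN2 reporter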
# Settings: HEK293T SMN2-luciferase reporter, siRNA knockdown, 72 h; actives lie on both sides
# Procedure, shortened: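 Each of three siRNAs per gene is reverse-transfected (1 pmol) into reporter HEK293T cells whose luciferase output tracks SMN protein level. After 72 h culture, ONE-Glo luminescence is control-normalized, log10-transformed and MAD-standardized; Common Seed Analysis deprioritizes seed-driven hits.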
row,Sequence,median seed-adjusted z-score
1,AGAAGAUUUUAGCUAGUAATT against CHRAC1,inactive: 0.193
2,GGACCGCAGCAAUGACAUUTT against SH3KBP1,inactive: -0.34
3,CCCUGACUCUUGGAUAUGATT against MEOX1,inactive: 0.0171
4,GCUACGUCUUUGCCCAGGATT against SBK1,inactive: 0.0587
5,GCACGGCUUUAAUAGAAGUTT against PARP15,inactive: -0.332
6,GGAAAAGAAAGUUACUGGATT against IFIT2,inactive: -0.0205
7,CAUCACCUUUUCUACUGAATT against LRIT3,inactive: 0.0324
8,CGGUUUGAACGGUUCCGAATT against TOM1,inactive: 0.774
9,AAGUGGAAGCGAAGCCGAATT against HMGN1,inactive: -0.183
10,GGCUUAAGAUGAUGUUUGATT against LIMA1,inactive: -0.359
11,ACAUCUAUAUGGACUCAGATT against PCTP,inactive: 0.446
12,GCAAGAAUCAGAUAUCGGATT against SLIT3,inactive: -0.453
13,CUGUAAUUAUGGAAACGGATT against SCUBE1,inactive: 0.673
14,GGAGGAGAGUCGCUACCUATT against CREBZF,inactive: 0.424
15,CGACUGGAUGUAUAAGCAUTT against TGIF2LX,inactive: -0.568
16,GGAAUAGAAUUAGUUCGAATT against RBM44,inactive: -0.00558
17,GCUGUCAGCCCAUUCUAUATT against RAX2,inactive: 0.345
18,GUAUGAUUGGUGUAACUCATT against DHX40,inactive: -0.75
19,GCAGUUGGAGAGAUAAUAATT against VRK1,inactive: -0.148
20,GCAUGGAAACAGCACCUAATT against ZNF131,inactive: 0.645
21,AGAAUACGCUGGACCGCUATT against KCND1,inactive: -0.359
22,GAACCAUGGAUGGUGAUAATT against ZNF287,inactive: 0.0213

row,Sequence,median seed-adjusted z-score
1,GCUACAGUCUCUACCCUGATT against BARX1,active: 1.63
2,GAGCAUCGACUGUACGAAATT against DHX34,inactive: -0.269
3,GACAACUAUUCCAAUAUUATT against MTMR6,inactive: -0.395
4,CCACGUUCAUUUAACUGAATT against HEMK1,inactive: 0.101
5,UCAUCUCACUGAAUGAAAATT against CHRNE,inactive: 0.349
6,CCAGCGCACCUUUGCCUAUTT against TRIM46,inactive: 0.034
7,GGAUGGACAUCAUAACCAUTT against ADI1,inactive: 0.0593
8,GACUUACUAUUAUCAAGGUTT against TMPRSS11B,inactive: -0.545
9,GCAAAUACGGUUUACUCCATT against SLAMF7,inactive: -0.478
10,GAUCCACCUUAUACUCAUATT against EPS8,inactive: 0
11,GACUGAAUUUUGUACUGAATT against CLCA3,inactive: 0.424
12,GCAUGAACAUUGCAUUGCATT against GPN3,inactive: -0.796
13,CCCUGUCAGGUAUCAAAGATT against MYBL2,inactive: 0.592
14,CAUCAUGACAUGUAUGAUUTT against PAFAH1B3,inactive: -0.381
15,GAACUAUGUUUAACUUGGATT against NOTO,inactive: -0.193
16,GUGUUGGACUGGAUUGAAATT against KALRN,inactive: 0.305
17,CAACAGUUGCGUCACAGAATT against BNIP1,inactive: 0.259
18,GAACUUUGAUGACGAGUGATT against RAD23A,active: -1.13
19,CCACUCUUCUGAUCAGAAATT against HSD11B1,inactive: -0.174
20,CGGUUGUCAUAUUUAUUGATT against ZNF764,inactive: 0.184
21,GUAAAGUUGUUGACAGUGUTT against AKTIP,inactive: -0.194
22,CACUGUACAGGAUACAUCATT against ARNT2,inactive: -0.244

row,Sequence,median seed-adjusted z-score
1,GGCUAUGACGGGAAGGAGATT against PTPN7,inactive: -0.189
2,AAUUGGAGCUGAUUUCUUATT against GOT1,inactive: 0.0103
3,GCUACACGGACAUCCCAAATT against RTEL1,inactive: 0.458
4,GAAGAGUGCUUGAAAUUUUTT against GFRA1,inactive: 0.125
5,GGAUGAAGCUAGAAUUAAATT against BHMT2,inactive: -0.0704
6,CGCUUUUCGUUGUAAAUAUTT against NKX2-2,inactive: -0.0805
7,AAACGGGAGUGUGCAGUCATT against TMED1,inactive: 0
8,GAACAAAGGUCAGUUCUUATT against PHF10,inactive: -0.199
9,GACUCUUAGAGGCAUCUAATT against TNKS,inactive: 0.193
10,GGAACAUCGUCUUGAGCAATT against ECHDC3,inactive: 0.378
11,ACCACAUGGUGUACCGGAUTT against PSCD2,inactive: -0.126
12,CCACGAAGCCUACAAGCAATT against NQO2,inactive: -0.0723
13,GAAUAGUAAAGAACCUUGATT against CHAT,inactive: -0.109
14,CUACAAGAGUGGGAAGUUUTT against UBE2M,inactive: 0.0974
15,GGAUCAUCAAGGUGAAACATT against CCL8,inactive: 0.436
16,GGAUCCAUCAUAUAGUUCATT against PRKAA1,inactive: 0.0423
17,GCACUUACCAGAGCUUGAATT against SLC25A30,inactive: 0
18,AGUCCUUUAUUAAGCGCAATT against INCENP,inactive: -0.339
19,GAAUAACGAUCCCAGAUAATT against IL31RA,inactive: 0.36
20,GGAACGGGAUUUAUUAAAATT against PDE4D,inactive: 0
21,GGAAAAUCAUCUUAUCAGATT against TEAD1,active: 1.31
22,GGAAAUACAUAUCGAAUGATT against GNE,inactive: 0.393

# An excerpt of these results, with tabs:
row	Sequence	median seed-adjusted z-score
1	GGCUAUGACGGGAAGGAGATT against PTPN7	inactive: -0.189
4	GAAGAGUGCUUGAAAUUUUTT against GFRA1	inactive: 0.125
7	AAACGGGAGUGUGCAGUCATT against TMED1	inactive: 0
19	GAAUAACGAUCCCAGAUAATT against IL31RA	inactive: 0.36
20	GGAACGGGAUUUAUUAAAATT against PDE4D	inactive: 0

# Some of the entries so far, bar-delimited:
row | Sequence | median seed-adjusted z-score
6 | CGCUUUUCGUUGUAAAUAUTT against NKX2-2 | inactive: -0.0805
7 | AAACGGGAGUGUGCAGUCATT against TMED1 | inactive: 0

# (cont.)

row,Sequence,median seed-adjusted z-score
1,GGAGUAUCUUCAAGUACAATT against GNG5,inactive: -0.215
2,GACUAAUGAACUACUAAAATT against HMMR,inactive: 0.389
3,GGUACCAAAUGAUUACGUATT against ABI2,inactive: -0.0392
4,CACACUCACUUAAAGAAAATT against NRGN,inactive: -0.381
5,CCAACAAGCUGUCUCCCUATT against CENPB,inactive: 0.292
6,AUAUCAGGGUGAAGACUCATT against ZNF22,inactive: 0.47
7,CGGCUUAAUUCAAGGAGUATT against HIAT1,inactive: -0.0612
8,GCUUAUUCCUUGUGCAGAATT against KLB,inactive: 0.221
9,GGUCUAUGAUGGUGACGAUTT against EBP,inactive: 0.017
10,GCAAACUACUUGGAUAGUATT against ADAM9,inactive: 0
11,GCAGUACCUCAAAUCGUUUTT against PPP1R12A,inactive: -0.103
12,GCUAUAAUCUUACUCAACATT against ZNF546,inactive: 0.497
13,GAAUGUAUCCGGCACGAGATT against UBE2Z,inactive: 0.0572
14,GAUCAUGGAUUAUAGCCUUTT against PIP5K1B,inactive: 0.0917
15,CCGGCAAAUUCAUCUCUUUTT against CASZ1,inactive: 0.263
16,GCUUUCAUCGGCUCCAUAATT against CARM1,inactive: 0.317
17,GGAUAUUUGCAAGACGAGATT against KCNT1,inactive: 0.379
18,GCAGAUUGAUGGUAUUGGATT against FBXO4,inactive: -0.0767
19,GCAUUCCGCUCAAAGGUCATT against GPR171,inactive: -0.449
20,CAAAGAUAGUGAUUGGUUATT against EIF4E,inactive: -0.404
21,GGUCGGAGAUUUGCAAGGATT against LTBP3,inactive: -0.0236
22,GGAUCUAAUCUUAGAUGUATT against POLR2H,active: -2.74

row,Sequence,median seed-adjusted z-score
1,CCUUAUCGAUAUUAUGAGATT against CPEB2,inactive: -0.00928
2,GAGCAGUACAGAACAGGAATT against HAAO,inactive: 0.214
3,ACAACUUUGCUAUCCAGGATT against LOXL4,inactive: -0.591
4,GAGCUAGCGAAUAACCUUATT against DDX42,active: -2.13
5,GAAAGAGGAUUAAAGAGAATT against DECR2,inactive: 0
6,GCCGUAUGAGUGUACCGAATT against ZNF300,inactive: -0.302
7,GAACUGCACCAAAGAAACATT against AKTIP,inactive: -0.194
8,GGAAUUAUCUGUUUGGACATT against MIER1,inactive: 0.0271
9,GUGCAGAAGCGACAAAUGATT against TXK,inactive: -0.109
10,GAAGGAUAUUUAGAGCGGATT against MYST3,inactive: -0.49
11,GGAUCAUCCUGAUAUUGUUTT against IPO13,inactive: 0.612
12,GGCAGUUAAUGGAGAAGUUTT against TERF2IP,inactive: 0.765
13,CCAGAAUCCAGUUCUCCGATT against TLR6,inactive: 0.505
14,GUUAAUCACCUGUAUGUCATT against RAPGEF5,inactive: 0.529
15,CGAGUGAAAGAAUCAAUAUTT against OXSR1,inactive: -0.0682
16,GUCGCUCUAUCACAAAGAATT against FOXK1,inactive: 0.63
17,GGUUAUAACGGGACGAUUUTT against KIF5C,inactive: 0.283
18,GGUCUGUUCUGCAAGCACATT against PARVG,inactive: 0.321
19,GCUACAUCCAUACCAGAUATT against NR2E1,inactive: 0.559

# Two records picked at random from the list so far:
row,Sequence,median seed-adjusted z-score
19,GCAGUUGGAGAGAUAAUAATT against VRK1,inactive: -0.148
19,GAAUAACGAUCCCAGAUAATT against IL31RA,inactive: 0.36
